Measured values: US20250145665A1, “MACROCYCLIC PEPTIDES USEFUL AS MODULATORS OF TNF ALPHA” (Bristol-Myers Squibb Company, priority 2023, published 2025)
Some entries share one result that the patent states for a list of compounds. Positions of bridges follow the written chain, without caps; N, C: chain ends. Non-standard residues stand in square brackets, D forms with d. Residues, ends and D or L forms follow the SMILES beside them. Bip(4'-COOH) = N[C@@H](Cc1ccc(-c2ccc(C(=O)O)cc2)cc1)C(=O)O; Bip(4'-NHAc) = CC(=O)Nc1ccc(-c2ccc(C[C@H](N)C(=O)O)cc2)cc1; Ala(morpholin-4-yl) = N[C@@H](CN1CCOCC1)C(=O)O; Phe(3-CONH2) = NC(=O)c1cccc(C[C@H](N)C(=O)O)c1; Bip = N[C@@H](Cc1ccc(-c2ccccc2)cc1)C(=O)O; Abu(3S-NH2) = C[C@H](N)[C@H](N)C(=O)O; 2Pal = N[C@@H](Cc1ccccn1)C(=O)O; 2Thi = N[C@@H](Cc1cccs1)C(=O)O; Cha = N[C@@H](CC1CCCCC1)C(=O)O; Chg = N[C@H](C(=O)O)C1CCCCC1; Sar = CNCC(=O)O

By UniProt entry, the sequences of proteins in these tests, tags left out. Residues count along the entry.
UniProt P01375, 77-233 limits assumed: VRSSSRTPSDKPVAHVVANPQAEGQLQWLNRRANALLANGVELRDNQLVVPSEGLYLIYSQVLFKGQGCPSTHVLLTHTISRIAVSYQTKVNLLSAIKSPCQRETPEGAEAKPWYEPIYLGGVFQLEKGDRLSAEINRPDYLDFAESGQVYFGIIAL

Target: TNFα (Homo sapiens, UniProt P01375)
Experiment: TNF-Induced HEK-Blue Assay
Format: cell-based
Conditions: summary statement for all examples; read-out: IC50 values measured in the TNF induced HEK-Blue assay

IC50, ≤ 25 µM:
CC(C)C[C@@H]1NC(=O)[C@H](CCCNC(=N)N)NC(=O)[C@H](C2CCCCC2)NC(=O)[C@@H]2CCCN2C(=O)[C@H](C(C)C)NC(=O)[C@@H](CCCNC(=N)N)NC(=O)[C@H](CC(=O)O)NC(=O)[C@H](Cc2cnc[nH]2)NC(=O)CN(C)C(=O)[C@H](Cc2ccc(-c3ccccc3)cc2)NC(=O)[C@H](Cc2ccc(-c3ccccc3)cc2)NC(=O)[C@H](CN2CCOCC2)NC(=O)CSC[C@@H](C(=O)NCC(N)=O)NC1=O [Example 230] ({CH2CO}-[Ala(morpholin-4-yl)][Bip][Bip][Sar]HD[dR]VP[Chg]RLCG-NH2; thioether N-13)
CC(C)C[C@@H]1NC(=O)[C@H](Cc2ccccc2)NC(=O)[C@H](C(C)C)NC(=O)[C@@H]2CCCN2C(=O)[C@H](C(C)C)NC(=O)[C@@H](CCCNC(=N)N)NC(=O)[C@H](CC(=O)O)NC(=O)[C@H](Cc2cnc[nH]2)NC(=O)CN(C)C(=O)[C@H](Cc2ccc(-c3ccccc3)cc2)NC(=O)[C@H](Cc2ccc(-c3ccccc3)cc2)NC(=O)[C@H](CN2CCOCC2)NC(=O)CSC[C@@H](C(=O)NCC(N)=O)NC1=O [Example 231] ({CH2CO}-[Ala(morpholin-4-yl)][Bip][Bip][Sar]HD[dR]VPVFLCG-NH2; thioether N-13)
CC(=O)Nc1ccc(-c2ccc(C[C@@H]3NC(=O)[C@H](Cc4ccc(-c5ccccc5)cc4)NC(=O)[C@H](CN4CCOCC4)NC(=O)CSC[C@@H](C(=O)NCC(N)=O)NC(=O)[C@H](CC(C)C)NC(=O)[C@H](CCCNC(=N)N)NC(=O)[C@H](C4CCCCC4)NC(=O)[C@@H]4CCCN4C(=O)[C@H](C(C)C)NC(=O)[C@@H](CCCNC(=N)N)NC(=O)[C@H](CC(=O)O)NC(=O)[C@H](Cc4cnc[nH]4)NC(=O)CN(C)C3=O)cc2)cc1 [Example 232] ({CH2CO}-[Ala(morpholin-4-yl)][Bip][Bip(4'-NHAc)][Sar]HD[dR]VP[Chg]RLCG-NH2; thioether N-13)
CC(=O)Nc1ccc(-c2ccc(C[C@@H]3NC(=O)[C@H](Cc4ccc(-c5ccccc5)cc4)NC(=O)[C@H](CC4CCCCC4)NC(=O)CSC[C@@H](C(=O)NCC(N)=O)NC(=O)[C@H](CC(C)C)NC(=O)[C@H](Cc4cccc(C(N)=O)c4)NC(=O)[C@H](C(C)C)NC(=O)[C@@H]4CCCN4C(=O)[C@H](C(C)C)NC(=O)[C@@H](CCCNC(=N)N)NC(=O)[C@H](CC(=O)O)NC(=O)[C@H](Cc4ccccn4)NC(=O)CN(C)C3=O)cc2)cc1 [Example 233] ({CH2CO}-[Cha][Bip][Bip(4'-NHAc)][Sar][2Pal]D[dR]VPV[Phe(3-CONH2)]LCG-NH2; thioether N-13)
CC(=O)Nc1ccc(-c2ccc(C[C@@H]3NC(=O)[C@H](Cc4ccc(-c5ccc(C(=O)O)cc5)cc4)NC(=O)[C@H](CC4CCCCC4)NC(=O)CSC[C@@H](C(=O)NCC(N)=O)NC(=O)[C@H](CC(C)C)NC(=O)[C@H](Cc4cnc[nH]4)NC(=O)[C@H](C(C)C)NC(=O)[C@@H]4CCCN4C(=O)[C@H](C(C)C)NC(=O)[C@@H](CCCNC(=N)N)NC(=O)[C@H](CC(=O)O)NC(=O)[C@H](Cc4cnc[nH]4)NC(=O)CN(C)C3=O)cc2)cc1 [Example 234] ({CH2CO}-[Cha][Bip(4'-COOH)][Bip(4'-NHAc)][Sar]HD[dR]VPVHLCG-NH2; thioether N-13)
CC(=O)Nc1ccc(-c2ccc(C[C@@H]3NC(=O)[C@H](Cc4ccc(-c5ccccc5)cc4)NC(=O)[C@H](CC4CCCCC4)NC(=O)CSC[C@@H](C(=O)NCC(N)=O)NC(=O)[C@H](CC(C)C)NC(=O)[C@H](Cc4cccs4)NC(=O)[C@H](C(C)C)NC(=O)[C@@H]4CCCN4C(=O)[C@H](C(C)C)NC(=O)[C@@H](CCCNC(=N)N)NC(=O)[C@H](CC(=O)O)NC(=O)[C@H](Cc4ccccn4)NC(=O)CN(C)C3=O)cc2)cc1 [Example 235] ({CH2CO}-[Cha][Bip][Bip(4'-NHAc)][Sar][2Pal]D[dR]VPV[2Thi]LCG-NH2; thioether N-13)
CC(=O)Nc1ccc(-c2ccc(C[C@@H]3NC(=O)[C@H](Cc4ccc(-c5ccc(C(=O)O)cc5)cc4)NC(=O)[C@H](CN4CCOCC4)NC(=O)CSC[C@@H](C(=O)NCC(N)=O)NC(=O)[C@H](CC(C)C)NC(=O)[C@H](Cc4ccc(O)cc4)NC(=O)[C@H](C(C)C)NC(=O)[C@@H]4CCCN4C(=O)[C@H](C(C)C)NC(=O)[C@@H](CCCNC(=N)N)NC(=O)[C@H](CC(=O)O)NC(=O)[C@@H]4CCCN4C(=O)CN(C)C3=O)cc2)cc1 [Example 236] ({CH2CO}-[Ala(morpholin-4-yl)][Bip(4'-COOH)][Bip(4'-NHAc)][Sar]PD[dR]VPVYLCG-NH2; thioether N-13)
CC(=O)Nc1ccc(-c2ccc(C[C@@H]3NC(=O)[C@H](Cc4ccc(-c5ccc(C(=O)O)cc5)cc4)NC(=O)[C@H](CN4CCOCC4)NC(=O)CSC[C@@H](C(=O)NCC(N)=O)NC(=O)[C@H](CC(C)C)NC(=O)[C@H](Cc4ccc(O)cc4)NC(=O)[C@H](C4CCCCC4)NC(=O)[C@@H]4CCCN4C(=O)[C@H](C(C)C)NC(=O)[C@@H](CCCNC(=N)N)NC(=O)[C@H](CC(=O)O)NC(=O)[C@@H]4CCCN4C(=O)CN(C)C3=O)cc2)cc1 [Example 237] ({CH2CO}-[Ala(morpholin-4-yl)][Bip(4'-COOH)][Bip(4'-NHAc)][Sar]PD[dR]VP[Chg]YLCG-NH2; thioether N-13)
CC[C@H](C)[C@@H]1NC(=O)[C@@H](CCCNC(=N)N)NC(=O)[C@H](CC(=O)O)NC(=O)[C@H](Cc2cnc[nH]2)NC(=O)CN(C)C(=O)[C@H](Cc2ccc(-c3ccc(NC(C)=O)cc3)cc2)NC(=O)[C@H](Cc2ccc(-c3ccccc3)cc2)NC(=O)[C@H](CN2CCOCC2)NC(=O)CSC[C@@H](C(=O)NCC(N)=O)NC(=O)[C@H](CC(C)C)NC(=O)[C@H](Cc2cnc[nH]2)NC(=O)[C@H](C(C)C)NC(=O)[C@@H]2CCCN2C1=O [Example 238] ({CH2CO}-[Ala(morpholin-4-yl)][Bip][Bip(4'-NHAc)][Sar]HD[dR]IPVHLCG-NH2; thioether N-13)
CC(=O)Nc1ccc(-c2ccc(C[C@@H]3NC(=O)[C@H](Cc4ccc(-c5ccccc5)cc4)NC(=O)[C@H](CC4CCCCC4)NC(=O)CSC[C@@H](C(=O)NCC(N)=O)NC(=O)[C@H](CC(C)C)NC(=O)[C@H](Cc4ccc(O)cc4)NC(=O)[C@H](C(C)C)NC(=O)[C@@H]4CCCN4C(=O)[C@H]([C@H](C)N)NC(=O)[C@@H](CCCNC(=N)N)NC(=O)[C@H](CC(=O)O)NC(=O)[C@@H]4CCCN4C(=O)CN(C)C3=O)cc2)cc1 [Example 239] ({CH2CO}-[Cha][Bip][Bip(4'-NHAc)][Sar]PD[dR][Abu(3S-NH2)]PVYLCG-NH2; thioether N-13)
CC(=O)Nc1ccc(-c2ccc(C[C@@H]3NC(=O)[C@H](Cc4ccc(-c5ccccc5)cc4)NC(=O)[C@H](CC4CCCCC4)NC(=O)CSC[C@@H](C(=O)NCC(N)=O)NC(=O)[C@H](CC(C)C)NC(=O)[C@H](Cc4cccc(C(N)=O)c4)NC(=O)[C@H](C(C)C)NC(=O)[C@@H]4CCCN4C(=O)[C@H](C(C)C)NC(=O)[C@@H](CCCNC(=N)N)NC(=O)[C@H](CC(=O)O)NC(=O)[C@@H]4CCCN4C(=O)CN(C)C3=O)cc2)cc1 [Example 240] ({CH2CO}-[Cha][Bip][Bip(4'-NHAc)][Sar]PD[dR]VPV[Phe(3-CONH2)]LCG-NH2; thioether N-13)
